Assay results as given in publication doi:10.1101/759712.
These are yes or no findings as the source states them, for the method shown. Some binding calls cover weakened binding; strength is not graded here. Blank lines part the entries; values can stand above or below the binder they belong to.

Target: T1, SINE2 (SUN domain-interacting NE protein 2) (Arabidopsis thaliana) (UniProt Q9SQR5)
T1 sequence: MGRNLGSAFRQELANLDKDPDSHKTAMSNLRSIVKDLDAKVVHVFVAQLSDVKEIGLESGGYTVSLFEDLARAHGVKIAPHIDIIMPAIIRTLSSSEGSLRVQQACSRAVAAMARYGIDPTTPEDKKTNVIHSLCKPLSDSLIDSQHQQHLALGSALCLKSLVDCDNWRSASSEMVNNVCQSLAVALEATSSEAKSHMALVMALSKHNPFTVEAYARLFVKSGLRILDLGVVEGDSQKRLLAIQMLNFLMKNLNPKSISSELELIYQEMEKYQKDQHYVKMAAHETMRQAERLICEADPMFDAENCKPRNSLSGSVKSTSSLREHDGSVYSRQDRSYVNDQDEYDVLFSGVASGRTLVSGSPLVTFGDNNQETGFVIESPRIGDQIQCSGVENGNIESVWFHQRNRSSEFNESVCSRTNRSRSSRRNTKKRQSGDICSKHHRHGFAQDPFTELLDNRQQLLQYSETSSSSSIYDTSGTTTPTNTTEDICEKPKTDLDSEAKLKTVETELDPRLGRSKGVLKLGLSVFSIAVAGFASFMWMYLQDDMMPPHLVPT
Experiment: two-hybrid

binding: binds weakly
B1: SINE2 (SUN domain-interacting NE protein 2) (protein, UniProt Q9SQR5 1-554)
chain: T1 sequence

binding: binds
B2: SINE1 (SUN domain-interacting NE protein 1) (protein, UniProt Q5XVI1 1-560)
chain: MGLNLNPILRQELANLDKDTESRKSAMKALKSYVKDLDSKAIPGFLAQVFETKETNSLSGEYTISLYEILARVHGPNIVPQIDTIMSTIVKTLASSAGSFPLQQACSKVIPAIARYGIDPTTTEDKKRVIIHSLCKPLTDSLLASQESLTSGAALCLKALVDSDNWRFASDEMVNRVCQNVVVALDSNSNQTHLQMGLVMSLAKHNPLIVEAYARLLIHTGLRILGFGVSEGNSQKRLSAVQMLNFLMKCLDPRSIYSEVELIIKEMERCQSDQMAYVRGAAYEAMMTSKRIAAELESKMEKGCRSVTGSNFSRRNCSSIVPDYSLSPESQTLGSFSGYDSPVESSPISHTSCNSEFDRRSVNRKLWRRDENGGVVDISLKDGLFSRVTKGSTTVSDSPLVPYDTCENGDEFEGFLMESLRNTTPSPQRQRSRRINAEDFNIFSTPRKLISSLQYPDDVDLDHSDIQSPILRGEREKTIGSRKNPKLRKQFPTMVETMSSTITVSEDTAQTQMITGKKKKKKMSYAKLVIAISFVVVALFATVILMVNQDDDVGYYTVPT
